T/C and survivor count data for 16 molecules are collected here from PubChem BioAssay AID330 (DTP/NCI, 2004).

The test deals with P388 leukemia ip, CD2F1 mice, survival T/C. Description: NCI In Vivo Anticancer Drug Screen. Data for tumor model P388 Leukemia (intraperitoneal) in CD2F1 (CDF1) mice. The note with it: T/C endpoint: median survival time, higher T/C = longer survival.
The mark [1] stands for this setting: dose: 25.0 mg/kg/injection, schedule: Q01DX009 (ip), vehicle: saline with Tween-80.
Setting [2] is: dose: 50.0 mg/kg/injection, schedule: Q01DX009 (ip), vehicle: saline with Tween-80.
Setting [3] is: dose: 100.0 mg/kg/injection, schedule: Q01DX009 (ip), vehicle: saline with Tween-80.
[4] abbreviates: dose: 50.0 mg/kg/injection, schedule: Q01DX009 (ip), vehicle: Klucel (hydroxypropylcellulose) (HPC).
The mark [5] stands for this setting: dose: 200.0 mg/kg/injection, schedule: Q01DX009 (ip), vehicle: saline with Tween-80.
[6] abbreviates: dose: 400.0 mg/kg/injection, schedule: Q01DX009 (ip), vehicle: Klucel (hydroxypropylcellulose) (HPC).

The list shows only some results of the screen, not a fair sample: it gathers tests that were run many times, whatever their T/C, doses with no T/C, and many T/C values between a quarter and a half above the control. Other doses and runs of a compound stand elsewhere. T/C gives the treated animals as a percentage of the vehicle group. Some entries give survivors of the animals treated and no T/C: the source files T/C as zero there, which appears to mark a toxic dose or a test without result, not a measured value. Some survivor counts are full or nearly so, which does not show that the dose was tolerated: survival well below the control is almost never listed, so the zero probably covers shortened survival too. Counts of survivors are from the toxicity check (mostly the fifth day) where no day follows; animals may have died later. Schedules are NCI's codes, read here as Q, the interval in days (D) or hours (H), X, the number of doses. For survival time, the PubChem record calls one and a half times the control and up active, and a quarter to a half above the control has no call in these data; cut-offs in other NCI protocols can differ. Some entries hold several experiments; the results are listed from low to high.

Consider `CC[C@H](CC[C@@H](C)C1CC[C@H]2[C@@H]3CC=C4C[C@@H](OP(=O)(N5CC5)N5CC5)CC[C@]4(C)[C@H]3CC[C@]12C)C(C)C` (stereo partly specified), for which the T/C is 126 % of control under setting [1]; 130 and 134 % of control under setting [2]; 149 % of control under setting [3].

Take `C=Cn1c([N+](=O)[O-])cnc1/C=C/c1ccc(C(=O)OCCN2CCCC2)cc1`: the survivor count (dose: 200.0 mg/kg/injection, schedule: Q01DX001 (ip), vehicle: DMSO) is listed as 0 of 6 and the survivor count (dose: 400.0 mg/kg/injection, schedule: Q01DX001 (ip), vehicle: DMSO) was 0 of 6.

As for `O=C(/C=C/C1N=C1c1ccccc1)c1ccccc1` (stereo unspecified), the survivor count reads like this: (dose: 200.0 mg/kg/injection, schedule: Q01DX001 (ip), vehicle: Klucel (hydroxypropylcellulose) (HPC)) 3 of 6; (dose: 400.0 mg/kg/injection, schedule: Q01DX001 (ip), vehicle: Klucel (hydroxypropylcellulose) (HPC)) 0 of 6.

Take `COc1c(CNC(=O)CCl)cc2[nH]c(C)cc2c1CNC(=O)CCl`: the T/C reads like this: under setting [4], 137 and 141 % of control; (dose: 100.0 mg/kg/injection, schedule: Q01DX009 (ip), vehicle: Klucel (hydroxypropylcellulose) (HPC)) 141 % of control; (dose: 200.0 mg/kg/injection, schedule: Q01DX009 (ip), vehicle: Klucel (hydroxypropylcellulose) (HPC)) 145 % of control.

For `CCCCOC(=O)/C=C(\Br)C(=O)OCCCC`, the T/C by setting is: under setting [1], 126 % of control; under setting [2], 126 % of control; under setting [3], 146 % of control. In addition, the survivor count under setting [5] was 0 of 6.

Turning to `CN(C)/N=C/c1ccc(O)cc1`, the survivor count under setting [4] is 6 of 6. Under setting [6], the T/C is 128 % of control and the survivor count is on record as 4 of 6.

As to `CC(=O)NC(C=O)OCC=O` (stereo unspecified), the T/C is, setting by setting: (dose: 100.0 mg/kg/injection, schedule: Q01DX005 (ip), vehicle: water) 127 % of control; (dose: 100.0 mg/kg/injection, schedule: Q01DX009 (ip), vehicle: water) 135 % of control. The survivor count reads like this: (dose: 200.0 mg/kg/injection, schedule: Q01DX009 (ip), vehicle: water) 6 of 6; (dose: 400.0 mg/kg/injection, schedule: Q01DX009 (ip), vehicle: water) 0 of 6.

As to `CCN(CC)CCO[C@H]1CC[C@@]2(C)C(=CC[C@@H]3[C@@H]2CC[C@]2(C)C(=O)CC[C@@H]32)C1`, the survivor count is given as 0 of 6 (dose: 100.0 mg/kg/injection, schedule: Q04DX003 (ip), vehicle: saline); 0 of 6 (dose: 200.0 mg/kg/injection, schedule: Q04DX003 (ip), vehicle: saline); 0 of 6 (dose: 400.0 mg/kg/injection, schedule: Q04DX003 (ip), vehicle: saline).

As to `COc1cc(O)ccc1C(=S)SC`, the survivor count (dose: 400.0 mg/kg/injection, schedule: Q04DX003 (ip), vehicle: saline with Tween-80) is 3 of 6.

For `Cc1c(S)cnc2ccccc12`, the survivor count (dose: 200.0 mg/kg/injection, schedule: Q01DX005 (ip), vehicle: saline with Tween-80) is 5 of 5.

As to `CSC(=S)C(CNc1ncccn1)c1ccccc1` (stereo unspecified), for the setting “dose: 240.0 mg/kg/injection, schedule: Q01DX005 (ip), vehicle: Klucel + Tween-80”, the survivor count was 6 of 6.

In the case of `CN(C)CCCN1CN(CCCN(C)C)CC(C)(C)C1`, under setting [5], the survivor count is 5 of 6.

On to `O=S(=O)(O)c1ccc(-c2c3nc(c(-c4ccc(S(=O)(=O)O)cc4)c4ccc([nH]4)c(-c4ccc(S(=O)(=O)O)cc4)c4nc(c(-c5ccc(S(=O)(=O)O)cc5)c5ccc2[nH]5)C=C4)C=C3)cc1`, for which the survivor count is, setting by setting: (dose: 25.0 mg/kg/injection, schedule: Q01DX009 (ip), vehicle: distilled water + Tween-80) 6 of 6; (dose: 50.0 mg/kg/injection, schedule: Q01DX009 (ip), vehicle: distilled water + Tween-80) 6 of 6; (dose: 100.0 mg/kg/injection, schedule: Q01DX009 (ip), vehicle: distilled water + Tween-80) 3 of 6; (dose: 200.0 mg/kg/injection, schedule: Q01DX009 (ip), vehicle: distilled water + Tween-80) 0 of 6.

Consider `CCC/C=[CH]/[Hg][Cl]`, for which the survivor count (dose: 25.0 mg/kg/injection, schedule: Q04DX003 (ip), vehicle: other) was 2 of 6.

For the molecule `NC(CSC(c1ccccc1)(c1ccccc1)c1ccc(Cl)cc1)C(=O)O` (stereo unspecified), the T/C (dose: 100.0 mg/kg/injection, schedule: Q04DX003 (ip), vehicle: saline with Tween-80) is 140 % of control.

On to `O=C(OC[P+](c1ccccc1)(c1ccccc1)c1ccccc1)c1ccccc1`, for which the survivor count (dose: 100.0 mg/kg/injection, schedule: Q01DX009 (ip), vehicle: saline) is listed as 2 of 6 and the survivor count (dose: 200.0 mg/kg/injection, schedule: Q01DX009 (ip), vehicle: saline) is given as 0 of 6.
